Experimental data taken from paper PMC5583512.
No constants are given. Whether binding was seen depends on the method and setting. Some binding calls cover weakened binding; strength is not graded here.

T1: ParB (Caulobacter crescentus) (UniProt B8GW30)
T1 sequence: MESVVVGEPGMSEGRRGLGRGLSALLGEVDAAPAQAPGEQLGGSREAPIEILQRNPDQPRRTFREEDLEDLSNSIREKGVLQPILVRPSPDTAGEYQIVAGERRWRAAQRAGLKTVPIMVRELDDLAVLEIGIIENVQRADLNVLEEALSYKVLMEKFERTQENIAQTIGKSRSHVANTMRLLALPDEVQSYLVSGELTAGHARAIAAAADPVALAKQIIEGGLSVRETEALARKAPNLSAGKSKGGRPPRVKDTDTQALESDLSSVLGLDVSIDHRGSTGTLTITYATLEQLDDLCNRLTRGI


Biological target: T1, ParB (Caulobacter crescentus)
Assay: two-hybrid; yeast two-hybrid; β-galactosidase activity assayed for each strain, presented relative to the ParB-ParA^WT value; four biological replicates

binding	Binder
binds	ParA(K20R) (protein, UniProt B8GW31 1-267) MSANPLRVLAIANQKGGVGRTTTAINLGTALAACGERVLLIDADPQGNCSTGLGIGRTQRRTTLYDVLMGEAPVVDAAVKTELPGLDVIPADADLSGVEIELGQTARRSYRLRDALEAIRANGPYTYVLIDCPPSLNVLTVNAMTAADAVFVPLQCEFFALEGLTQLMRTIERVRGSLNPRLEIQGVVLTMYDRRNSLSEQVAKDVRAHFGDKVYDAVIPRNVRVSEAPSFGKPVLLYDLKCAGSQAYLKLAREVISRERDRQAKAA
binds	ParA (WT) (protein, UniProt B8GW31 1-267) MSANPLRVLAIANQKGGVGKTTTAINLGTALAACGERVLLIDADPQGNCSTGLGIGRTQRRTTLYDVLMGEAPVVDAAVKTELPGLDVIPADADLSGVEIELGQTARRSYRLRDALEAIRANGPYTYVLIDCPPSLNVLTVNAMTAADAVFVPLQCEFFALEGLTQLMRTIERVRGSLNPRLEIQGVVLTMYDRRNSLSEQVAKDVRAHFGDKVYDAVIPRNVRVSEAPSFGKPVLLYDLKCAGSQAYLKLAREVISRERDRQAKAA
